Publication PMC3454328

Key:
LHX4 wild type = target: T1, LHX4 wild type (UniProt Q969G2); assay: EMSA; settings: competed by 200x cold competitor; LightShift chemiluminescent EMSA kit (Pierce), per manufacturer; pH and temperature not stated; protein in a lysate after overexpression
T1 sequence (looked up, limits assumed): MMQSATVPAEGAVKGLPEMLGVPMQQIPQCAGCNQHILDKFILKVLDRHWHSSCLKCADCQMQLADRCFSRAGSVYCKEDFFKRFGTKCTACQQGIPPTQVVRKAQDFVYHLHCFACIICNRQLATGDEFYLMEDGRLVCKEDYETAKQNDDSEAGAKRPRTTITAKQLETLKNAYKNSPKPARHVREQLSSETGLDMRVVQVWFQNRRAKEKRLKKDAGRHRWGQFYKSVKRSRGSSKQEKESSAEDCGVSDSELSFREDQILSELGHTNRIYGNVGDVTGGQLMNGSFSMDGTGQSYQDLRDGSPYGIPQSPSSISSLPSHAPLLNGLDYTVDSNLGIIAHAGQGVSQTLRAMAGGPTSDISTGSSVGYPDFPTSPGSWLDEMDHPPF

LHX4 V75I = target: T2, LHX4 V75I (UniProt Q969G2); assay: EMSA; settings: similar or slightly higher efficiency than WT; LightShift chemiluminescent EMSA kit (Pierce), per manufacturer; pH and temperature not stated; protein in a lysate after overexpression
T2 sequence (looked up, limits assumed): T1 sequence (looked up, limits assumed) with V75I

Sequence: GTATGAATCATTAATTGACAACATATTTTC (double strand) [LHX4 EMSA probe]
- binding result (LHX4 wild type): binds
- binding result (LHX4 V75I): binds

Substitutions are numbered along the chain they refer to. For at least one entry, the source does not settle the construct or the ends of the probe. Where cells or extracts were used, other partners may take part. Protein sequences can lack the tags named with them.
